Results as given in patent publication US20180355060A1.
Positions count from the first letter of the chain named. Results are given in words; binding and its absence hold for the method and conditions named. Some results given as binding are weak or reduced against the parent protein; the word gives no strength.

Chains of the proteins cited; added tags and fusions are not shown. Lines headed by an entry give the natural chain unless they say otherwise; changes in a name come on top.
UniProt P21980: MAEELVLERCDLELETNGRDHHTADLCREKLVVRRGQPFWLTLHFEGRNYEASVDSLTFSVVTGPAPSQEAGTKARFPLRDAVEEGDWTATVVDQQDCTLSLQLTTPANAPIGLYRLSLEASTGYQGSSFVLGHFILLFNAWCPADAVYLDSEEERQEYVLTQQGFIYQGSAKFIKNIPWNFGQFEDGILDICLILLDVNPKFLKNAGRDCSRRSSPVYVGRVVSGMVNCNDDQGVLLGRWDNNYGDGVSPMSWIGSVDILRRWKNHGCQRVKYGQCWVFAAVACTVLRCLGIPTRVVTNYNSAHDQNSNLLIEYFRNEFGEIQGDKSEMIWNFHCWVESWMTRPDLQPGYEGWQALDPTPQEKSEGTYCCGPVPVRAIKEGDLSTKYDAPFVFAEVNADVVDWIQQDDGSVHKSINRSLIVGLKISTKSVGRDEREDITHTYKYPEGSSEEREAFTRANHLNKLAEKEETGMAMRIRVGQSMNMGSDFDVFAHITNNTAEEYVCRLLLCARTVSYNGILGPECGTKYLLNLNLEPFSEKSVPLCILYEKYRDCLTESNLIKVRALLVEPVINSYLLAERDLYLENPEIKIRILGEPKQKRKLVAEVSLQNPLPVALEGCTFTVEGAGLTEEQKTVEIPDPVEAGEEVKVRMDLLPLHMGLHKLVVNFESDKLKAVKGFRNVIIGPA

B1: hBB001AA humanised BB7 antibody (BB7 RHA with BB7 RKA) (antibody, V domains shown)
VH: EVQLLESGGGLVQPGGSLRLSCAASGIIFSSSAMSWVRQAPGKGLEWVATISSGGRSTYYPDSVKGRFTVSRDSSKNTLYLQMNSLRAEDTAVYYCAKLISPYWGQGTLVTVSS
VL: DIKMTQSPSSLSASVGDRVTITCKASQDINSYLTWFQQKPGKAPKTLIYLTNRLMDGVPSRFSGSGSGQEFLLTISSLQPEDFATYYCLQYVDFPYTFGQGTKVEIK
B2: hBB001BB humanised BB7 antibody (BB7 RHB with BB7 RKB) (antibody, V domains shown)
VH: B1 VH with I27F, I28T, A49S, V70I, S74N
VL: B1 VL with K3Q, T46S, Q69T, E70D, L72F
B3: cDC001 chimeric anti-TG2 antibody (murine DC1 variable regions, human IgG1 and human kappa) (antibody, V domains shown)
VH: EVQLVESGGGLVKPGGSLKLSCAASGFTLSTHAMSWVRQTPEKRLEWVATISSGGRSTYYPDSVKGRFTISRDNVKNTLYLQLSSLRSEDTAVYFCARLISTYWGQGTTLTVSS
VL: DITMTQSPSSIYASLGERVTITCKASQDINSYLTWFQQKPGKSPKILIYLVNRLVDGVPSRFSGSGSGQDYALTISSLEYEDMGIYYCLQYDDFPYTFGGGTKLEIK
B4: cBB001 chimeric anti-TG2 antibody (murine BB7 variable regions, human IgG1 and human kappa) (antibody, V domains shown)
VH: AVQLVESGGGLVKPGGSLKLSCAASGIIFSSSAMSWVRQTPEKRLEWVATISSGGRSTYYPDSVKGRFTVSRDSAKNTLYLQMDSLRSEDTAIYYCAKLISPYWGQGTTLTVSS
VL: AIKMTQSPSSMYASLGERVIITCKASQDINSYLTWFQQKPGKSPKTLIYLTNRLMDGVPSRFSGSGSGQEFLLTISGLEHEDMGIYYCLQYVDFPYTFGGGTKLEIK
B5: cAB003 chimeric anti-TG2 antibody (murine AB1 variable regions, human IgG1 and human kappa) (antibody, V domains shown)
VH: EVQLVESGGGLVKPGGSLKLSCAASGFTLSSSAMSWVRQTPDRRLEWVATISVGGGKTYYPDSVKGRFTISRDNAKNTLYLQMNSLRSEDTAMYYCAKLISLYWGQGTTLTVSS
VL: B3 VL with T3K, I11M, I46T, L50R, V51T, V55F, Y71F, A72F
B6: hAB004 (hAB001AE) humanised AB1 antibody, heavy chain version RHA with light chain version RKE (antibody, V domains shown)
VH: B1 VH with I27F, I28T, A49S, S53V, R56G, S57K, V70I, S74N, P102L
VL: EIVLTQSPSSLSASVGDRVTITCKASQDINSYLTWYQQKPGKAPKLLIYRTNRLFDGVPSRFSGSGSGTDFFFTISSLQPEDFGTYYCLQYDDFPYTFGGGTKLEIK
B7: hAB005 (hAB001AJ) humanised AB1 antibody, heavy chain version RHA with light chain version RKJ (antibody, V domains shown)
VH: B1 VH with I27F, I28T, A49S, S53V, R56G, S57K, V70I, S74N, P102L
VL: B1 VL with K3Q, T46S, L50R, M55F, Q69T, E70D, L72F, V92D

Target: cynomolgus monkey TG2 (cynomolgus monkey)
Experiment: SPR (Biacore)

binding, binds:
B1
B2
B3
B4
B5
B6
B7

Target: human transglutaminase type 2 (TG2) (human) (UniProt P21980)
Experiment: SPR (Biacore)

binding, binds:
B1
B2
B5

Target: cynomolgus monkey TG2 (cynomolgus monkey)
Experiment: SPR (Biacore), figure legend

binding, binds:
B6

Target: human transglutaminase type 2 (TG2) (human) (UniProt P21980)
Experiment: SPR (Biacore), figure legend

binding, binds:
B5

Target: cynomolgus monkey TG2 (cynomolgus monkey)
Experiment: ELISA on plates coated with cynomolgus monkey TG2

binding, binds:
B1
B2
B3
B4
B5
B6

Target: human transglutaminase type 2 (TG2) (human) (UniProt P21980)
Experiment: ELISA on plates coated with human TG2

binding, binds:
B1
B2
B5
